Record: PubChem BioAssay AID1671195 (Yale University, 2021)
The whole screen tested about 22,000 reagents; this is a part drawn at random. About 1,510 of all reagents (6.9%) count as active. 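Active includes knockdowns raising or lowering LDL uptake; positive z-scores mean more uptake, negative mean less.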

Screen: 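Knockdowns that increase or decrease uptake of fluorescent LDL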 (primary screen)
Cell system: human Huh7 hepatoma cells
Reagents: siRNA pool against human genes, 18 nM
Time to read-out: about 2 to 2.5 days of knockdown, then 8 h LDL uptake
Challenge: DiI-labelled LDL at 30 µg/ml for 8 h, in lipoprotein-deficient serum medium
Measurement: 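Per-cell DiI-LDL intensity by automated imaging; well means scaled to the plate median and given as a robust z-score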
Scale: robust z-score: higher = more LDL uptake after knockdown
Active means: 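a gene counts as active if at least two replicate z-scores exceed ±2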

With LOC440852 (retired record) [SID442894557], what does the deposit list?
robust z-score, replicate 1: 0.0151; robust z-score, replicate 2: -0.0658; robust z-score, replicate 3: -0.173; Call: inactive

With MINK1 (misshapen like kinase 1) [SID442904114], what does the deposit list?
robust z-score, replicate 1: -1.75; robust z-score, replicate 2: -1.26; robust z-score, replicate 3: -1.48; Call: inactive

Which result is listed for FIMP1 (fertilization-influencing membrane protein 1) [SID442896276]?
robust z-score, replicate 1: -0.411; robust z-score, replicate 2: -0.572; robust z-score, replicate 3: 0.217; Call: inactive

With DNAAF4 (dynein axonemal assembly factor 4) [SID442899550], what was measured?
robust z-score, replicate 1: -0.534; robust z-score, replicate 2: -0.561; robust z-score, replicate 3: -0.81; Call: inactive

Which result is listed for PDCD4 (programmed cell death 4) [SID442889959]?
robust z-score, replicate 1: 0.689; robust z-score, replicate 2: 1.46; robust z-score, replicate 3: -0.701; Call: inactive

With CROT (carnitine O-octanoyltransferase) [SID442891876], what was measured?
robust z-score, replicate 1: 0.225; robust z-score, replicate 2: -0.0842; robust z-score, replicate 3: 0.566; Call: inactive

For REXO1 (RNA exonuclease 1 homolog) [SID442902290], what does the deposit list?
robust z-score, replicate 1: -1.21; robust z-score, replicate 2: -1.21; robust z-score, replicate 3: -0.714; Call: inactive

What is on record for LOC390217 (retired record) [SID442892864]?
robust z-score, replicate 1: 0.228; robust z-score, replicate 2: -0.144; robust z-score, replicate 3: 0.264; Call: inactive

Part of the list above, reformatted:
gene knocked down	PubChem SID	robust z-score, replicate 1	robust z-score, replicate 2	robust z-score, replicate 3	Call
FIMP1 (fertilization-influencing membrane protein 1)	SID442896276	-0.411	-0.572	0.217	inactive
DNAAF4 (dynein axonemal assembly factor 4)	SID442899550	-0.534	-0.561	-0.81	inactive
PDCD4 (programmed cell death 4)	SID442889959	0.689	1.46	-0.701	inactive
CROT (carnitine O-octanoyltransferase)	SID442891876	0.225	-0.0842	0.566	inactive

Next results follow.
How did the screen score LOC442464 (retired record) [SID442886722]?
robust z-score, replicate 1: 1.57; robust z-score, replicate 2: 1.44; robust z-score, replicate 3: 0.229; Call: inactive

What is on record for KCNE4 [SID442884529]?
robust z-score, replicate 1: -2.55; robust z-score, replicate 2: -3.76; robust z-score, replicate 3: -0.718; Call: active

For BCL3 (BCL3 transcription coactivator) [SID442902737], what was measured?
robust z-score, replicate 1: -0.498; robust z-score, replicate 2: -1.49; robust z-score, replicate 3: -1.43; Call: inactive

What is on record for KAT14 (lysine acetyltransferase 14) [SID442896755]?
robust z-score, replicate 1: -0.274; robust z-score, replicate 2: -0.466; robust z-score, replicate 3: -0.188; Call: inactive

What did the screen give for ZNF534 (zinc finger protein 534) [SID442892888]?
robust z-score, replicate 1: 0.0121; robust z-score, replicate 2: 0.306; robust z-score, replicate 3: 0.0229; Call: inactive

What did the screen give for PHF11 (PHD finger protein 11) [SID442886945]?
robust z-score, replicate 1: 1.23; robust z-score, replicate 2: 0.807; robust z-score, replicate 3: 1.03; Call: inactive

With SMAD5 (SMAD family member 5) [SID442894998], how do the results read?
robust z-score, replicate 1: -0.229; robust z-score, replicate 2: 0.0769; robust z-score, replicate 3: -0.214; Call: inactive

Which result is listed for HOGA1 (4-hydroxy-2-oxoglutarate aldolase 1) [SID442891220]?
robust z-score, replicate 1: -0.248; robust z-score, replicate 2: 0.702; robust z-score, replicate 3: 0.492; Call: inactive

How did the screen score KIF5A (kinesin family member 5A) [SID442897269]?
robust z-score, replicate 1: 0.271; robust z-score, replicate 2: -0.53; robust z-score, replicate 3: -0.842; Call: inactive

What did the screen give for GALC (galactosylceramidase) [SID442884371]?
robust z-score, replicate 1: -1.96; robust z-score, replicate 2: -2.25; robust z-score, replicate 3: -1.85; Call: active

For LOC400847 (retired record) [SID442899247], what was measured?
robust z-score, replicate 1: -0.614; robust z-score, replicate 2: -0.774; robust z-score, replicate 3: -0.399; Call: inactive

With YWHAQ [SID442884075], how do the results read?
robust z-score, replicate 1: 2.49; robust z-score, replicate 2: 1.32; robust z-score, replicate 3: 2.21; Call: active

For PAAF1 (proteasomal ATPase associated factor 1) [SID442886277], how do the results read?
robust z-score, replicate 1: 1.77; robust z-score, replicate 2: 0.953; robust z-score, replicate 3: 0.893; Call: inactive

How did the screen score LOC441414 (retired record) [SID442891913]?
robust z-score, replicate 1: -0.0562; robust z-score, replicate 2: 0.503; robust z-score, replicate 3: 0.244; Call: inactive

What did the screen give for TPT1P9 (TPT1 pseudogene 9) [SID442883434]?
robust z-score, replicate 1: 3.3; robust z-score, replicate 2: 2.72; robust z-score, replicate 3: 2.72; Call: active

What is on record for TMEM213 (transmembrane protein 213) [SID442888332]?
robust z-score, replicate 1: 0.562; robust z-score, replicate 2: 1.12; robust z-score, replicate 3: 0.537; Call: inactive
